Experimental data reported in PMC2656614.
These are yes or no findings as the source states them, for the method shown. In cells and extracts the contact can be indirect. Some entries that bind do so weakly or less than the wild type. Tags and fused reporters may be left off the sequences shown.

The chains behind the UniProt entries cited, without tags or fusion partners.
UniProt P10085: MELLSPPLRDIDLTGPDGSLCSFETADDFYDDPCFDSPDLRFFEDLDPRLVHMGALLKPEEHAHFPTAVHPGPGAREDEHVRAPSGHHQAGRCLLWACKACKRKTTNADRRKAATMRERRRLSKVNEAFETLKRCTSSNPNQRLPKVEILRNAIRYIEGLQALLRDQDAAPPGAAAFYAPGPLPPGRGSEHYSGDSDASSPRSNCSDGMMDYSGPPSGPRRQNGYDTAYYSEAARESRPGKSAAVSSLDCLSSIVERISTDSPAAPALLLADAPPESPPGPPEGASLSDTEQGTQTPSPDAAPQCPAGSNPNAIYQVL

Molecular target: T1, Flag-tagged MAFbx (Atrogin-1/Muscle Atrophy F-box) (UniProt Q969P5)
T1 sequence: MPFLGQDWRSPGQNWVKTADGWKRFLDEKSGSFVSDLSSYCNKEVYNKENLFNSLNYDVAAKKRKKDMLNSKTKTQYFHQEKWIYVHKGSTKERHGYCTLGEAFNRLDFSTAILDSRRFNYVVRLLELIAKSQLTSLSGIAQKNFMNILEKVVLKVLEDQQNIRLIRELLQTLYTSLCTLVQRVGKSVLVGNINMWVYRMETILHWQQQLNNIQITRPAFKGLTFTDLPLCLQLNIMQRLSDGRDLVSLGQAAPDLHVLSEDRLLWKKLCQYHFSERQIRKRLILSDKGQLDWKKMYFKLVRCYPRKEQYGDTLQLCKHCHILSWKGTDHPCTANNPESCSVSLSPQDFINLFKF
Assay: co-IP; 10T1/2 cells co-transfected with an HA-tagged MRF and Flag-MAFbx, harvested 24 hr after transfection; 400 µg of total proteins immunoprecipitated with anti-Flag antibodies, Western blotting with anti-HA

Molecule: HA-tagged MyoD (from UniProt P10085 1-318)
- binding: binds

B1: HA-tagged myogenin (protein, UniProt P12979 1-224)
chain: MELYETSPYFYQEPHFYDGENYLPVHLQGFEPPGYERTELSLSPEARGPLEEKGLGTPEHCPGQCLPWACKVCKRKSVSVDRRRAATLREKRRLKKVNEAFEALKRSTLLNPNQRLPKVEILRSAIQYIERLQALLSSLNQEERDLRYRGGGGPQPMVPSECNSHSASCSPEWGNALEFGPNPGDHLLAADPTDAHNLHSLTSIVDSITVEDMSVAFPDETMPN
- binding: no binding

B2: HA-tagged MRF4 (protein, UniProt P15375 1-242)
chain: MMMDLFETGSYFFYLDGENVTLQPLEVAEGSPLYPGSDGTLSPCQDQMPQEAGSDSSGEEHVLAPPGLQPPHCPGQCLIWACKTCKRKSAPTDRRKAATLRERRRLKKINEAFEALKRRTVANPNQRLPKVEILRSAISYIERLQDLLHRLDQQEKMQELGVDPYSYKPKQEILEGADFLRTCSPQWPSVSDHSRGLVITAKEGGANVDASASSSLQRLSSIVDSISSEERKLPSVEEVVEK
- binding: no binding
